Experimental data taken from paper PMC9385627.
These are yes or no findings as the source states them, for the method shown. In cells and extracts the contact can be indirect. Some binding calls cover weakened binding; strength is not graded here.

Sequences of proteins named here, by UniProt entry; tags and fusion partners are left off.
UniProt Q03267: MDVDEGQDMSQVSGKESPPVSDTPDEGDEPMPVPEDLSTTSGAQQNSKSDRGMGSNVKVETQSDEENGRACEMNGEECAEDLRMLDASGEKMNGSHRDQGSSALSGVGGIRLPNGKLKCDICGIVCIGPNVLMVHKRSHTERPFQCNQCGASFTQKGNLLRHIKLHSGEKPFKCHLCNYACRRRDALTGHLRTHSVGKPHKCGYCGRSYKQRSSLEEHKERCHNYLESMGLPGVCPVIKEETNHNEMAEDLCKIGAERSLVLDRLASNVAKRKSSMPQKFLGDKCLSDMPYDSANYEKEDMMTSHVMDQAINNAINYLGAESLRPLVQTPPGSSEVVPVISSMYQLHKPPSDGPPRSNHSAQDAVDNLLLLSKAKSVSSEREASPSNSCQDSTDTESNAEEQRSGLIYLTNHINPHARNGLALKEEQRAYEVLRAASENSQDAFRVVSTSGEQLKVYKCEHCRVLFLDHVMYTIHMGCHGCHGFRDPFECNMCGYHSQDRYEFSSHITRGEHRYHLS
UniProt O09106: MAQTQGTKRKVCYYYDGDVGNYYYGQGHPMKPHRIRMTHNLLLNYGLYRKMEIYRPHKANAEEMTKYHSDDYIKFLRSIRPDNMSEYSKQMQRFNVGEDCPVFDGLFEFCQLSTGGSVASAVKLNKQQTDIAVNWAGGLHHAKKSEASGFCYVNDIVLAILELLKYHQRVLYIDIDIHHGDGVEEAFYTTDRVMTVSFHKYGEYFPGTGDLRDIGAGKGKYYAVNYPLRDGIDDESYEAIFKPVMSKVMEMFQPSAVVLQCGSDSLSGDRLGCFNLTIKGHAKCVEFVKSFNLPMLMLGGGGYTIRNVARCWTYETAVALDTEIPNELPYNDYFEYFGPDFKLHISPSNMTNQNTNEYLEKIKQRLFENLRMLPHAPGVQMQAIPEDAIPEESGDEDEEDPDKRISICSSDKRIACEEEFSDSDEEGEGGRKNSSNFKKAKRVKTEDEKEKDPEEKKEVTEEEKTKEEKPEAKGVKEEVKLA

Tests used:
[1] = target: IKZF1, endogenous in RAW 264.7 cells (mouse (endogenous in RAW 264.7)) (UniProt Q03267); assay: co-IP; RAW 264.7 cells, groups control, LPS, LPS + PU, LPS + oe-NC, LPS + oe-HDAC1; lysate incubated with anti-IKZF1 antibody or IgG, protein A/G-sepharose; blot for HDAC1 and IKZF1
[2] = target: IKZF1, overexpressed in 293T cells (mouse) (UniProt Q03267); assay: co-IP; 293T cells transfected with oe-NC, oe-HDAC1, oe-IKZF1 or both for 48 h; lysate incubated with anti-IKZF1 antibody or IgG overnight at 4 °C, protein A/G-sepharose; blot for HDAC1 and IKZF1

Substance	binding [1]	binding [2]
histone deacetylase 1 (HDAC1), endogenous in RAW 264.7 cells (from UniProt O09106 1-482)	binds	
histone deacetylase 1 (HDAC1), overexpressed in 293T cells (from UniProt O09106 1-482)		binds
histone deacetylase 1 (HDAC1), overexpressed in RAW 264.7 cells (from UniProt O09106 1-482)	binds	
